This passage reports binding results from publication PMC2810305.

These are yes or no findings as the source states them, for the method shown. Some binding calls cover weakened binding; strength is not graded here.

The target in this test is T1, cytosolic glutamyl-tRNA synthetase (Cyt-gluRS) (AT5G26710) (Arabidopsis thaliana) (UniProt O82462).
T1 sequence: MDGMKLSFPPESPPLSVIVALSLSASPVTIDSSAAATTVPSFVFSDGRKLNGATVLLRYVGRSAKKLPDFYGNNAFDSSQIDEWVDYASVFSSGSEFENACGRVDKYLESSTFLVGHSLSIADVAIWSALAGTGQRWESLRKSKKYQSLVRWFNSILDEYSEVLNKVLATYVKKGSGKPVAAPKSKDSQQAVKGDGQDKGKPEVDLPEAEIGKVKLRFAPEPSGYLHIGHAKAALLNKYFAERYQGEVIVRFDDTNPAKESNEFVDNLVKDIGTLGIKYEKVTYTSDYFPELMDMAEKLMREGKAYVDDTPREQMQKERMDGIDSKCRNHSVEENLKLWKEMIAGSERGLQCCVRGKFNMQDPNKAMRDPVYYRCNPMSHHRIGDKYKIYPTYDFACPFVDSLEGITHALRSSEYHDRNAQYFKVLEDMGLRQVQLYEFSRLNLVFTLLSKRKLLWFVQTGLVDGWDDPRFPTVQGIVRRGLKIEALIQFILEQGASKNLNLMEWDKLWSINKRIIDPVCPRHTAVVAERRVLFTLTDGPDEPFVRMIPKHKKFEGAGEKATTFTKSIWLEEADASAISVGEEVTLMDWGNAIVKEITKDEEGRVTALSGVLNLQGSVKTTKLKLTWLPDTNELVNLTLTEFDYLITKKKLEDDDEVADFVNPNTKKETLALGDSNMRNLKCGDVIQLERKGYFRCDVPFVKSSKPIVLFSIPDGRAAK
In words: two-hybrid; Gal4 based yeast two-hybrid system, AT5G26710 as bait; AH109 transformants spotted on -LW (selection of prey and bait plasmids) and -LWAH (reporter gene activation). In general terms: Reporter assays use an easily measured gene product as a stand-in for the process of interest.

B1: zinc finger protein (AT5G24930) (protein, UniProt Q940T9 1-362)
chain: MASKLCDSCKSATAALYCRPDAAFLCLSCDSKVHAANKLASRHARVWMCEVCEQAPAHVTCKADAAALCVTCDRDIHSANPLARRHERVPVTPFYDSVSSDGSVKHTAVNFLDDCYFSDIDGNGSREEEEEEAASWLLLPNPKTTTTATAGIVAVTSAEEVPGDSPEMNTGQQYLFSDPDPYLDLDYGNVDPKVESLEQNSSGTDGVVPVENRTVRIPTVNENCFEMDFTGGSKGFTYGGGYNCISHSVSSSSMEVGVVPDGGSVADVSYPYGGPATSGADPGTQRAVPLTSAEREARVMRYREKRKNRKFEKTIRYASRKAYAEMRPRIKGRFAKRTDTNESNDVVGHGGIFSGFGLVPTF
As to B1, the binding result is given as “binds”.

B2: glutamine synthetase (AT5G35630) (enzyme, UniProt Q43127 1-430)
chain: MAQILAASPTCQMRVPKHSSVIASSSKLWSSVVLKQKKQSNNKVRGFRVLALQSDNSTVNRVETLLNLDTKPYSDRIIAEYIWIGGSGIDLRSKSRTIEKPVEDPSELPKWNYDGSSTGQAPGEDSEVILYPQAIFRDPFRGGNNILVICDTWTPAGEPIPTNKRAKAAEIFSNKKVSGEVPWFGIEQEYTLLQQNVKWPLGWPVGAFPGPQGPYYCGVGADKIWGRDISDAHYKACLYAGINISGTNGEVMPGQWEFQVGPSVGIDAGDHVWCARYLLERITEQAGVVLTLDPKPIEGDWNGAGCHTNYSTKSMREEGGFEVIKKAILNLSLRHKEHISAYGEGNERRLTGKHETASIDQFSWGVANRGCSIRVGRDTEAKGKGYLEDRRPASNMDPYIVTSLLAETTLLWEPTLEAEALAAQKLSLNV
In the case of B2, the binding entry is listed as “binds”.
